From PubChem BioAssay AID445 (National Center for Advancing Translational Sciences (NCATS), 2006) come the findings set out here.

This experiment in a line: IkB Signaling. The settings on record: ABC-DLBCL IkBa-CBG/CBR dual luciferase ratio (green luciferase fused to IkBa over red control in OCI-Ly3 lymphoma cells), 4 h. Put shortly: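 Curves were fitted separately to fusion (green), unfused (red) and ratio luminescence, then classed by r2, magnitude and activity. Cells: OCI-Ly3, 4 h compound plus doxycycline at 37C; 10 uM MG-132 defined full response.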
Setting [1] is: measured here: control luc red channel unless noted.
Setting [2] is: measured here: IkB-luc green channel.
[3] abbreviates: measured here: control luc red channel.

The structures appear in SMILES notation. This is one part of the list. Further columns of the screen follow, without active or inactive calls. Compounds called inactive in the main read-out are mostly missing here. Words in brackets tell the shape of the fitted curve; partial curves, single points and poor fits give uncertain potencies.

A word on the AC50: it is the concentration giving half of the maximal activity seen. Regarding `COc1cc2c(C(=O)N3CCN(c4ccc(F)cc4)CC3)cn(CC(C)C)c(=O)c2cc1OC`, the AC50 under setting [1] was 3.16 µM [falling, full curve]. Still for that read-out and setting: in the case of `CCOc1ccccc1NC(=O)C1CCCN(S(=O)(=O)c2cccs2)C1` (stereo not given) it was 39.8 µM [falling, single point]. Turning to `O=c1c2c(nc3cc(-c4ccc(F)cc4)[nH]n13)CCCC2`, under setting [1], the AC50 is 20 µM [falling, single point]. Same read-out and setting: in the case of `COc1ccc(N2CCN(C(=O)c3ccc4c(c3)CCN4S(=O)(=O)c3ccccc3)CC2)cc1` it was 20 µM [falling, single point]; in that of `Cc1c(C(=O)N(C)Cc2ccccc2)sc2nc(-c3ccc(F)cc3)cn12`, 15.8 µM [falling, partial curve].

As for `COc1cccc(-c2cc(C(=O)NCc3ccccc3)no2)c1`, under setting [1], the AC50 is 10 µM [falling, partial curve]. For `CCOC(=O)CNC(=O)CSc1nnc(-c2ccco2)n1Cc1ccco1`, under setting [1], the AC50 was 5.01 µM [falling, full curve, poor fit]. For `CC(NCc1ccc2c(c1)n(C)c(=O)n2C)c1ccccc1` (stereo not given), the AC50 under setting [1] is 3.16 µM [rising, full curve]. For the compound `Cc1ccc(-c2cn3c(n2)sc2cc(C(=O)NC4CCCCCC4)ccc23)cc1`, under setting [1], the AC50 is 12.6 µM [falling, partial curve].

`COCCCNC(=O)C1CCN(Cc2cc3ccccc3n2Cc2cccc(Cl)c2)CC1`: the AC50 under setting [1] was 20 µM [falling, partial curve].

In the case of `Cc1cc(C)n2nc(CNC(=O)c3cccc(N(C)C)c3)nc2n1`, the AC50 under setting [1] was 2 µM [rising, full curve, poor fit].

For the compound `Cc1ccc(S(=O)(=O)Nc2ccc(Br)cc2/C=N/n2cnnc2)cc1`, the AC50 under setting [1] was 20 µM [falling, single point]. Still for that read-out and setting: then `Cc1noc2ncnc(NCCc3ccccc3)c12`, with 12.6 µM [falling, single point]; and `CCOCCc1nn2c(=O)cc(COC(=O)c3ccccc3NC(=O)c3ccccc3F)nc2s1`, with 10 µM [falling, single point]. On the same count and under the same terms, then `CCOc1ccc(C(=O)c2cn(CC(=O)Nc3ccc(OC)cc3)c3cc4c(cc3c2=O)OCO4)cc1`, with 10 µM [rising, partial curve]; and `O=C(NCC(c1ccc2c(c1)OCO2)N1CCN(c2ccccc2)CC1)C(=O)Nc1ccc(F)cc1` (stereo not given), with 0.1 µM [falling, full curve]; and `O=C(NCc1cccs1)c1cc2ccccc2o1`, with 15.8 µM [falling, partial curve]. Same read-out and setting: in the case of `CN(C)c1ccc(CN(Cc2ccco2)C(=O)COc2ccc(F)cc2)cc1` it was 20 µM [falling, single point]; in that of `Cc1ccc(NC(=O)N2CC3CCCN3c3ccccc32)cc1C` (stereo not given), 5.01 µM [falling, partial curve]; in that of `Cc1cccc(C(=O)NCC(c2cccs2)S(=O)(=O)c2cccs2)c1` (stereo not given), 1 µM [rising, full curve]. Turning to `Cc1nc2sc(C)c(C)n2c(=O)c1S(=O)(=O)N1CCN(c2ccccc2F)CC1`, the AC50 under setting [1] is 20 µM [falling, single point].

For `Cc1c(C(=O)N(Cc2ccc(N(C)C)cc2)CC2CCCO2)oc2ccccc12` (stereo not given), under setting [1], the AC50 is 20 µM [falling, partial curve]. As to `Cc1cccc(N2CCN(C(=O)c3ccc4nc(N5CCC(C)CC5)sc4c3)CC2)c1C`, under setting [1], the AC50 was 12.6 µM [falling, partial curve].

On to `CCCSc1ncc(Cl)c(C(=O)Nc2ccc(S(=O)(=O)N3CCCC(C)C3)cc2)n1` (stereo not given), for which the AC50 under setting [1] is 15.8 µM [falling, partial curve]. Still for that read-out and setting: in the case of `CCc1nnc(SCc2nc(-c3ccccc3Cl)oc2C)c2cc3sc(C)cc3n12` it was 10 µM [falling, partial curve]; in that of `COc1ccc2[nH]cc(CCNC(=O)Nc3ccccc3)c2c1`, 39.8 µM [falling, single point]; in that of `Cc1ccc(NC(=O)CN2C(=O)c3cccnc3Sc3ccccc32)cc1C`, 25.1 µM [falling, single point]. Regarding `CCCn1c(=O)c2ccccc2n2c(SCc3nc4ccccc4s3)nnc12`, the AC50 under setting [1] is 2.51 µM [falling, partial curve]. Take `c1ccc(-c2cc(-c3nnc4sc(-c5ccccn5)nn34)[nH]n2)cc1`: under setting [1], the AC50 is 2 µM [falling, full curve].

For the compound `O=C(COc1ccccc1Br)c1ccc(O)cc1O`, under setting [1], the AC50 was 31.6 µM [falling, partial curve]. On the same count and under the same terms, then `CCc1ccc(CNc2ncc(-c3cccc(OC)c3)n2C)cc1`, with 12.6 µM [rising, partial curve]; and `O=C(CC1CCCCC1)N1CCN(c2ccccn2)CC1`, with 12.6 µM [falling, partial curve]; and `CCOC(=O)Cc1cc(C(=O)Nc2ccc(Br)cc2)sc1-c1ccc(C)cc1`, with 10 µM [falling, partial curve]. Consider `O=C(O)CCC(=O)Nc1ccc(N2CCCCCC2)cc1`, for which the AC50 reads like this: under setting [2], 15.8 µM [rising, partial curve]; under setting [3], 0.02 µM [falling, full curve]. As to `CN1/C(=C\C(=O)COC(=O)Cn2nnc(-c3ccccc3)n2)C(C)(C)c2ccccc21`, under setting [1], the AC50 is 7.94 µM [falling, partial curve]. The same measure, in the same setting: then `COc1ccc(CNC(=O)C2CCCN(S(=O)(=O)N(C)c3ccc(F)cc3)C2)cc1OC` (stereo not given), with 10 µM [falling, partial curve]; and `O=C(OCc1cc(=O)n2nc(-c3cccs3)sc2n1)c1cccc(Cl)c1`, with 2.51 µM [falling, partial curve]. On to `COc1ccc(S(=O)(=O)c2c(N)n(Cc3ccco3)c3nc4ccccc4nc23)cc1`, for which the AC50 under setting [1] was 15.8 µM [falling, partial curve]. On the same count and under the same terms, in the case of `Cc1ccccc1C(=O)Nc1cccc(OCc2cc(=O)n3c4c(sc3n2)CCCC4)c1` it was 20 µM [falling, partial curve]; in that of `COc1ccc(NC(=O)Cn2cc(S(=O)(=O)N3CCC(C)CC3)c3ccccc3c2=O)cc1Cl`, 5.01 µM [falling, partial curve]; in that of `Cc1ccc(C)c(N2CCN(C(=O)c3ccc(-c4nc(COc5ccccc5)c(C)o4)cc3)CC2)c1`, 10 µM [falling, partial curve]. The same measure, in the same setting: in the case of `COc1cccc(CNS(=O)(=O)c2ccc3[nH]c4c(c3c2)CCCCC4)c1` it was 31.6 µM [falling, single point]; in that of `CCOc1ccc(NC(=O)c2ccc3[nH]c(C)cc(=O)c3c2)cc1`, 0.00631 µM [rising, full curve, poor fit]. For the compound `COC(=O)c1cc(C(=O)OC)cc(S(=O)(=O)Nc2ccc(Cl)c(N)c2)c1`, the AC50 under setting [1] is 31.6 µM [falling, single point]. On the same count and under the same terms, in the case of `COc1ccc(CN(Cc2ccco2)C(=O)COc2ccc(Cl)cc2C)cc1` it was 25.1 µM [falling, partial curve]; in that of `CCOC(=O)c1c(S(=O)(=O)N2CCCC(C(=O)NCc3ccc(F)cc3)C2)c(C)n(CC)c1C` (stereo not given), 5.01 µM [rising, single point]; in that of `O=C(CCCCn1c(=O)[nH]c2ccsc2c1=O)N1CCN(c2cccc(C(F)(F)F)c2)CC1`, 20 µM [falling, partial curve]. Take `CC(=O)N1CCc2c(sc3c2c(=O)n(-c2cccc(Cl)c2C)c(=O)n3Cc2ccccc2C)C1`: under setting [1], the AC50 is 31.6 µM [falling, single point].

Regarding `Cn1cc(C(=O)c2ccc(Cl)cc2)cc1-c1nc2ccccc2n1C`, the AC50 under setting [1] was 5.01 µM [falling, full curve]. The same measure, in the same setting: in the case of `CCN1CCN(Cc2c(O)ccc3oc(C)c(C(=O)Nc4ccc(OC)cc4)c23)CC1` it was 10 µM [falling, partial curve]. As to `O=C(CSc1nc2cc(Cl)ccc2o1)c1cccs1`, the AC50 under setting [1] is 25.1 µM [falling, single point]. Regarding `CCC(=O)OCC(=O)[C@@]1(OC(=O)CC)[C@H](C)C[C@@H]2[C@@H]3[C@H]([C@@H](O)C[C@@]21C)[C@]1(C)C=CC(=O)C=C1C[C@@H]3Cl`, under setting [1], the AC50 is 5.01 nM [rising, full curve] [measured here: IkB-luc green channel]. As for `Cc1ccc(SCc2[nH]nc3c2C2(CCSCC2)C(C#N)=C(N)O3)cc1`, under setting [1], the AC50 is 5.01 µM [falling, partial curve, poor fit]. For the compound `N#C/C(=C\c1ccc(O)c(O)c1)C(=O)NCCCc1ccccc1`, the AC50 under setting [1] is 15.8 µM [falling, partial curve]. On the same count and under the same terms, then `CCCCNC(=O)Nc1ccc(Br)cn1`, with 25.1 µM [falling, single point]; and `CCOC(=O)c1ccccc1NC(=O)Cn1nnc2sc3c(c2c1=O)CCCC3`, with 25.1 µM [falling, single point]. As for `CCn1c(=O)c(C(=O)NCc2ccccn2)c(O)c2ccccc21`, the AC50 under setting [1] is 7.94 µM [falling, partial curve].

For the compound `CCOc1ccc(NC(=O)c2oc3ccccc3c2NC(=O)C2CCCCC2)cc1`, the AC50 under setting [1] is 39.8 µM [falling, single point]. For `COc1ccc(CCNc2oc(COc3ccccc3Cl)nc2C#N)cc1OC`, the AC50 was 12.6 µM [falling, partial curve] under setting [2] and 3.98 µM [falling, partial curve] under setting [3].

Consider `Cc1cccc(NC(=O)CSc2nc(=O)n(Cc3ccncc3)c3c2CCC3)c1C`, for which the AC50 under setting [1] is 5.01 µM [falling, partial curve]. As to `Cc1ncsc1C(=O)Nc1nc2c(s1)CCCC2`, the AC50 under setting [1] is 7.94 µM [falling, partial curve].

Consider `CCOC(=O)Cn1c(=O)oc2cc(S(=O)(=O)Nc3ccc(F)cc3)ccc21`, for which the AC50 under setting [1] is 15.8 µM [falling, partial curve].

As for `Oc1ccc(/C=C/c2nc(-c3ccccc3O)n(-c3ccccc3)n2)c(O)c1`, the AC50 under setting [1] is 25.1 µM [falling, partial curve].
